# PubChem BioAssay AID1259308 – NCATS | 2017
# Aim: 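Genes whose loss raises luciferase production in HEK293 cells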 (primary screen)
# Cell system: human HEK293 embryonic kidney cells stably expressing firefly luciferase (HEK-CMV-Luc2-Hygro)
# Reagent: single siRNA against human genes, 0.8 pmol siRNA per well
# Duration: 72 h
# Measured: 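Reporter luminescence and viable-cell signal on separate replicate plates, given as percent of non-targeting control and median/MAD z-scores, plus per-cell luciferase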
# Direction: total luciferase, z-score and total luciferase, % of control: higher = more reporter protein produced; luciferase per cell, z-score: higher = more reporter output per viable cell; viable cells, % of control: higher = more viable cells
# Active means: 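An siRNA counts as active if its total luciferase robust z-score exceeds 3; genes with two or more such siRNAs out of three were retested with fresh siRNAs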
# Meaning of the calls: active = raised luciferase; inactive = no rise
# This is an unselected part of about 59,000 reagents tested. Over the whole deposit, about 1,510 (2.6%) are marked active. 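Calls use total luciferase alone and ignore viability, so some active siRNAs may act by altering cell number.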 Reagents against one gene are numbered here.
target,siRNA no.,"total luciferase, z-score","total luciferase, % of control","luciferase per cell, z-score","viable cells, % of control",call
FAM43A (GeneID 131583),1,0.289,87.6,-0.332,107,inactive
FAM43A (GeneID 131583),2,0.865,99.1,0.621,94,inactive
FAM43A (GeneID 131583),3,1.11,104,0.53,101,inactive
PCDHGA6 (GeneID 56109),1,0.573,93.3,0.781,84.9,inactive
PCDHGA6 (GeneID 56109),2,-1.13,59.5,-1.12,89.2,inactive
PCDHGA6 (GeneID 56109),3,-0.805,65.9,-0.621,86.7,inactive
CAGE1 (GeneID 285782),1,0.819,98.2,2.31,59.7,inactive
CAGE1 (GeneID 285782),2,-0.583,70.3,0.425,70.2,inactive
CAGE1 (GeneID 285782),3,0.184,85.5,0.621,81.2,inactive
KPRP (GeneID 448834),1,1.39,109,0.808,98.9,inactive
KPRP (GeneID 448834),2,0.812,98,0.647,92.4,inactive
KPRP (GeneID 448834),3,-2.04,41.4,-1.05,61,inactive
OIT3 (GeneID 170392),1,-0.872,64.5,-0.957,92.8,inactive
OIT3 (GeneID 170392),2,-1.33,55.4,-1.31,87.4,inactive
OIT3 (GeneID 170392),3,1.35,109,1.34,85.4,inactive
GNB1 (GeneID 2782),1,-0.889,64.2,0.945,55.9,inactive
GNB1 (GeneID 2782),2,0.476,91.4,0.092,99.6,inactive
GNB1 (GeneID 2782),3,4.12,164,2.76,88.4,active
SMOC2 (GeneID 64094),1,-0.17,78.5,-0.49,99.8,inactive
SMOC2 (GeneID 64094),2,-1.38,54.4,-0.559,70.4,inactive
SMOC2 (GeneID 64094),3,-0.884,64.3,-0.0197,72.2,inactive
RNF7 (GeneID 9616),1,1.46,111,1.16,91.3,inactive
RNF7 (GeneID 9616),2,2.44,130,1.74,92.3,inactive
RNF7 (GeneID 9616),3,4.01,162,3.55,70.9,active
EIF3LP3 (GeneID 340947),1,-1.63,49.4,-0.278,59.4,inactive
EIF3LP3 (GeneID 340947),2,-0.385,74.2,0.0963,80.9,inactive
EIF3LP3 (GeneID 340947),3,0.529,92.4,0.17,98.7,inactive
RBM47 (GeneID 54502),1,0.76,97,0.0691,106,inactive
RBM47 (GeneID 54502),2,1.65,115,1.09,96.4,inactive
RBM47 (GeneID 54502),3,0.706,95.9,-0.282,115,inactive
CEP97 (GeneID 79598),1,-1.64,49.2,-1.45,80.6,inactive
CEP97 (GeneID 79598),2,-0.196,78,-0.789,107,inactive
CEP97 (GeneID 79598),3,-0.425,73.4,-0.832,102,inactive
S100PBP (GeneID 64766),1,-2.06,40.9,-1.37,65.7,inactive
S100PBP (GeneID 64766),2,-0.874,64.5,-0.644,85.4,inactive
S100PBP (GeneID 64766),3,1.69,116,1.33,90.9,inactive
KAT7 (GeneID 11143),1,-1.14,59.1,-0.844,82.5,inactive
KAT7 (GeneID 11143),2,-0.023,81.4,-0.501,104,inactive
KAT7 (GeneID 11143),3,0.265,87.2,0.55,84.3,inactive
MAN2A1 (GeneID 4124),1,0.488,91.6,-0.238,109,inactive
MAN2A1 (GeneID 4124),2,-0.349,75,-0.64,99.1,inactive
MAN2A1 (GeneID 4124),3,0.308,88,0.0489,97.1,inactive
ARAP3 (GeneID 64411),1,-0.257,76.8,-0.167,89.6,inactive
ARAP3 (GeneID 64411),2,0.586,93.5,0.0726,103,inactive
ARAP3 (GeneID 64411),3,-0.0793,80.3,-0.416,100,inactive
OR5C1 (GeneID 392391),1,1.25,107,1.13,88.5,inactive
OR5C1 (GeneID 392391),2,0.713,96.1,0.802,86.9,inactive
OR5C1 (GeneID 392391),3,0.488,91.6,2.24,56.7,inactive
TTC1 (GeneID 7265),1,-1.05,61,-0.926,87.1,inactive
TTC1 (GeneID 7265),2,2.26,127,2.55,72.4,inactive
TTC1 (GeneID 7265),3,0.0317,82.5,-0.262,98.8,inactive
CCNQ (GeneID 92002),1,0.221,86.3,0.427,86.2,inactive
CCNQ (GeneID 92002),2,3.1,144,3.93,57,active
CCNQ (GeneID 92002),3,-0.241,77.1,-0.57,100,inactive
ACVR2B (GeneID 93),1,-0.724,67.5,-0.176,79,inactive
ACVR2B (GeneID 93),2,1.52,112,1.71,79.9,inactive
ACVR2B (GeneID 93),3,0.157,85,-0.209,100,inactive
TTYH1 (GeneID 57348),1,2.61,134,2.73,72.9,inactive
TTYH1 (GeneID 57348),2,0.854,98.9,0.602,94.3,inactive
TTYH1 (GeneID 57348),3,-1.2,58,-0.608,76.1,inactive
RPL30 (GeneID 6156),1,-2.62,29.9,-1.59,50.8,inactive
RPL30 (GeneID 6156),2,-2.76,27,-1.28,42.3,inactive
RPL30 (GeneID 6156),3,-2.92,23.8,-2.8,55.4,inactive
PIAS2 (GeneID 9063),1,0.424,90.3,-0.375,111,inactive
PIAS2 (GeneID 9063),2,0.813,98.1,0.454,97.2,inactive
PIAS2 (GeneID 9063),3,-0.516,71.6,-0.591,93.5,inactive
TMEM126A (GeneID 84233),1,1.89,119,1.46,90.9,inactive
TMEM126A (GeneID 84233),2,0.968,101,1.99,66.9,inactive
TMEM126A (GeneID 84233),3,0.978,101,0.851,90.5,inactive
FDX2 (GeneID 112812),1,-0.186,78.2,0.0989,85.1,inactive
FDX2 (GeneID 112812),2,0.319,88.2,0.545,85.4,inactive
FDX2 (GeneID 112812),3,-0.101,79.9,0.248,83.6,inactive
XKR9 (GeneID 389668),1,0.692,95.7,0.138,103,inactive
XKR9 (GeneID 389668),2,-0.865,64.7,-0.942,92.6,inactive
XKR9 (GeneID 389668),3,-2.23,37.5,-2.25,75.7,inactive

Entries listed above marked active:
target,siRNA no.,"total luciferase, z-score","total luciferase, % of control","luciferase per cell, z-score","viable cells, % of control",call
GNB1 (GeneID 2782),3,4.12,164,2.76,88.4,active
RNF7 (GeneID 9616),3,4.01,162,3.55,70.9,active
CCNQ (GeneID 92002),2,3.1,144,3.93,57,active
